Reference: patent US20210206856A1

B1: MAdCAM Antibody Table 2 Clone 17 (antibody, human IgG1, V domains shown)
VH: QVQLVQSGAEVKKPGSSVKVSCKASGYTFTDYHIHWVRQAPGQGLEWMGGIVPRSGSTTYAQKFQGRVTITADESTSTAYMELSSLRSEDTAVYYCAKDESSGWYYFDYWGQGTLVTVSS
VL: DIVMTQSPLSLPVTPGEPASISCRSSQSLLHSNGYNYLDWYLQKPGQSPQLLIYSAYNRASGVPDRFSGSGSGTDFTLKISRVEAEDVGVYYCMQALQTPLTFGQGTKVEIK
B2: MAdCAM Antibody Table 1 Clone 1 (scFv)
scFv: EVQLLESGGGLVQPGGSLRLSCAASGFTFSSYGMHWVRQAPGKGLEWVAVISDDGSDKYYADSVKGRFTISRDNSKNTLYLQMNSLRAEDTAVYYCTTSKYYYYYGMDVWGQGTTVTVSSGGGGSGGGGSGGGGSGGGGSDIQMTQSPSSLSASVGDRVTITCQASQDISKSLNWYQQKPGKAPKLLIYAASSLQSGVPSRFSGSGSGTDFTLTISSLQPEDFATYYCQQGYSTPLTFGGGTKVEIK
B3: MAdCAM Antibody Table 2 Clone 63 (antibody, human IgG1, V domains shown)
VH: EVQLLESGGGLVQPGGSLRLSCAASGFTFNNYGMNWVRQAPGKGLEWVSRINSDGSSTSYADSVKGRFTISRDNSKNTLYLQMNSLRAEDTAVYYCARGAYYYYYMDVWGQGTLVTVSS
VL: EIVMTQSPATLSVSPGERATLSCRASQSVSGSYLAWYQQKPGQAPRLLIYATSSRASGIPARFSGSGSGTEFTLTISSLQSEDFAVYYCQQYYSGLTFGQGTKVEIK
B4: MAdCAM Antibody Table 1 Clone 2 (scFv)
scFv: QVQLVQSGAEVKKPGASVKVSCKASGYPFIGYYLHWVRQAPGQGLEWMGIINPSGGSTSYAQKFQGRVTMTRDTSTSTVYMELSSLRSEDTAVYYCAREGRLSYGMDAWGQGTLVTVSSGGGGSGGGGSGGGGSGGGGSDIQMTQSPSSLSASVGDRVTITCRASQSISSYLAWYQQKPGKAPKLLIYGASTLESGVPSRFSGSGSGTDFTLTISSLQPEDFATYYCQQTWGPPFTFGQGTKLEIK
B5: MAdCAM Antibody Table 2 Clone 83 (antibody, human IgG1, V domains shown)
VH: EVQLLESGGGLVQPGGSLRLSCAASGFTFSSYWMHWVRQAPGKGLEWVAAISYDGKYKDYEDSVKGRFTISRDNSKNTLYLQMNSLRAEDTAVYYCARENKQWLASFDYWGQGTLVTVSS
VL: DIQMTQSPSSLSASVGDRVTITCQASQDISNFVNWYQQKPGKAPKLLIYAANLRSGVPSRFSGSGSGTDFTLTISSLQPEDFATYYCQQANSFPVTFGPGTKVDIK
B6: MAdCAM Antibody Table 2 Clone 79 (antibody, human IgG1, V domains shown)
VH: EVQLLESGGGLVKPGGSLRLSCAASGFTFDDYAMHWVRQAPGKGLEWVASITSSSAFIDYAASVKGRFTISRDDSKNTLYLQMNSLKTEDTAVYYCARERVDWNSYFDLWGRGTLVTVSS
VL: EIVMTQSPATLSVSPGERATLSCRASQGISNSYLAWYQQKPGQAPRLLIYGASTRATGIPARFSGSGSGTEFTLTISSLQSEDFAVYYCQQYYTYPPTFGPGTKVDIK
B7: MAdCAM Antibody Table 2 Clone 4 (antibody, human IgG1, V domains shown)
VH: QVQLVQSGAEVKKPGASVKVSCKASGGTFSSYAISWVRQAPGQGLEWMGSINPSGDTTSYAQKFQGRVTMTRDTSTSTVYMELSSLRSEDTAVYYCAKDKAQWLVGYFDYWGQGTLVTVSS
VL: DIQMTQSPSSLSASVGDRVTITCQASQDISNSLNWYQQKPGKAPKLLIYAASSLQSGVPSRFSGSGSGTDFTLTISSLQPEDFATYYCQQSYSSVITFGQGTKVEIK
B8: MAdCAM Antibody Table 2 Clone 65 (antibody, human IgG1, V domains shown)
VH: QVQLVQSGAEVKKPGASVKVSCKASGYTFTSYDINWVRQAPGQGLEWMGWMNPNSGNTGYAQKFQGRVTMTRDTSTSTVYMELSSLRSEDTAVYYCAKDSDYSNLLWDYWGQGTLVTVSS
VL: B7 VL with Q24R, S30T, S32D, N34G, A50Q, Q55E, S93T, S94I, V95P, I96L
B9: MAdCAM Antibody Table 2 Clone 8 (antibody, human IgG1, V domains shown)
VH: QVQLVQSGAEVKKPGASVKVSCKASGYTFTGYHIHWVRQAPGQGLEWMGIINPSGGSTIYAQKFQGRVTMTRDTSTSTVYMELSSLRSEDTAVYYCAKDWSSWYLGPFDYWGQGTLVTVSS
VL: B7 VL with Q24R, D28N, N31S, S93T, S94T, V95P, I96Y
B10: MAdCAM Antibody Table 2 Clone 30 (antibody, human IgG1, V domains shown)
VH: EVQLLESGGGLVQPGGSLRLSCAASGFTFSSYAMHWVRQAPGKGLEWVSGISGSGGSAYYADSVKGRFTISRDNSKNTLYLQMNSLRAEDTAVYYCATSQAPVDYYYYGMDVWGQGTTVTVSS
VL: B7 VL with Q24R, D28S, N31S, S32W, N34A, S53N, S56R, S94I, V95P
B11: MAdCAM Antibody Table 2 Clone 23 (antibody, human IgG1, V domains shown)
VH: EVQLLESGGGLVQPGGSLRLSCAASGFTFDDYAMHWVRQAPGKGLEWVSYIDTSSSHLYYADSVKGRFTISRDNSKNTLYLQMNSLRAEDTAVYYCARDEAAAGYYGMDVWGQGTTVTVSS
VL: B7 VL with S26G, S32Y, A50D, S53N, Q55E, S56T, S91T, S94T, V95P, V104L
B12: MAdCAM Antibody Table 2 Clone 82 (antibody, human IgG1, V domains shown)
VH: QVQLVQSGAEVKKPGASVKVSCKASGYTFTRHWIHWVRQAPGQGLEWMGWINVKTGGAGYAQKFQGRVTMTRDTSTSTVYMELSSLRSEDTAVYYCARESSGWYGTDVWGQGTTVTVSS
VL: B7 VL with V19A, Q24R, D28S, S32Y, N34A, Y92N, S94F, V95P, I96L, Q100G
B13: MAdCAM Antibody Table 2 Clone 76 (antibody, human IgG1, V domains shown)
VH: EVQLLESGGGLVQPGGSLRLSCAASGFTFDDYTMHWVRQAPGKGLEWVSDISGSGGSTYYADSVKGRFTISRDNSKNTLYLQMNSLRAEDTAVYYCAKDVVVAGTPLHFDYWGQGTLVTVSS
VL: B7 VL with S32Y, S53Y, S91A, Y92H, S93N, S94Y, V95P, K103R, V104L
B14: MAdCAM Antibody Table 2 Clone 5 (antibody, human IgG1, V domains shown)
VH: EVQLLESGGGLVQPGGSLRLSCAASGFTFSSYWMHWVRQAPGKGLEWVSSISPGGSNIDYADSVKGRFTISRDNSKNTLYLQMNSLRAEDTAVYYCAREVQLSHYDYWGQGTLVTVSS
VL: B7 VL with Q24R, D28G, N34A, A50G, S91A, Y92N, S94F, V95P, I96F
B15: MAdCAM Antibody Table 2 Clone 11 (antibody, human IgG1, V domains shown)
VH: EVQLLESGGGLVQPGGSLRLSCAASGFTFSDYYMNWVRQAPGKGLEWVSVIGESGGSTYYADSVKGRFTISRDNSKNTLYLQMNSLRAEDTAVYYCAADPVSRWPKHGGGDYWGQGTLVTVSS
VL: B7 VL with Q24R, D28G, N31S, N34A, S53T, S94T, V95P, I96W
B16: MAdCAM Antibody Table 2 Clone 84 (antibody, human IgG1, V domains shown)
VH: QVQLVQSGAEVKKPGASVKVSCKASGGTFSSSAISWVRQAPGQGLEWMGWISAYNGYTNYAQKFQGRVTMTRDTSTSTVYMELSSLRSEDTAVYYCASRVHSGGSYPDDYWGQGTLVTVSS
VL: B7 VL with Q27E, D28H, S30Y, S32Y, S91T, Y92D, S94I, V95P
B17: MAdCAM Antibody Table 2 Clone 74 (antibody, human IgG1, V domains shown)
VH: QVQLVQSGAEVKKPGASVKVSCKASGYTFTGYYMHWVRQAPGQGLEWMGIINPSGGNTKYAQKFQGRVTMTRDTSTSTVYMELSSLRSEDTAVYYCTTADYYYYMDVWGKGTTVTVSS
VL: DIQMTQSPSSLSASVGDRVTITCRASQGISNYLAWYQQKPGKAPKLLIYAASSLQSGVPSRFSGSGSGTDFTLTISSLQPEDFATYYCQQYYSNADFGQGTKVEIK
B18: MAdCAM Antibody Table 2 Clone 60 (antibody, human IgG1, V domains shown)
VH: EVQLLESGGGLVQPGGSLRLSCAASGFTFSDHGMHWVRQAPGKGLEWVSVIYGGESTYYADSVKGRFTISRDNSKNTLYLQMNSLRAEDTAVYYCARDPAVAGGGIFDYWGQGTLVTVSS
VL: DIQMTQSPSSLSASVGDRVTITCRASQGISNYLAWYQQKPGKAPKLLIYDASNLETGVPSRFSGSGSGTDFTLTISSLQPEDFATYYCQQSYSTCYTFGQGTKLEIK
B19: MAdCAM Antibody Table 1 Clone 66 (scFv)
scFv: EVQLLESGGGLVQPGGSLRLSCAASGFTFSSYWMHWVRQAPGKGLEWVAAISYDGKYKDYEDSVKGRFTISRDNSKNTLYLQMNSLRAEDTAVYYCARENKQWLASFDYWGQGTLVTVSSGGGGSGGGGSGGGGSGGGGSDIQMTQSPSSLSASVGDRVTITCQASQDISNFVNWYQQKPGKAPKLLIYAANLRSGVPSRFSGSGSGTDFTLTISSLQPEDFATYYCQQANSFPVTFGPGTKVDIK
B20: MAdCAM Antibody Table 1 Clone 4 (scFv)
scFv: QVQLVQSGAEVKKPGASVKVSCKASGGTFSSYAISWVRQAPGQGLEWMGSINPSGDTTSYAQKFQGRVTMTRDTSTSTVYMELSSLRSEDTAVYYCAKDKAQWLVGYFDYWGQGTLVTVSSGGGGSGGGGSGGGGSGGGGSDIQMTQSPSSLSASVGDRVTITCQASQDISNSLNWYQQKPGKAPKLLIYAASSLQSGVPSRFSGSGSGTDFTLTISSLQPEDFATYYCQQSYSSVITFGQGTKVEIK
B21: MAdCAM Antibody Table 2 Clone 20 (antibody, human IgG1, V domains shown)
VH: EVQLLESGGGLVQPGGSLRLSCAASGFTFSDSAMHWVRQAPGKGLEWVSAISGSGSTIYYADSVKGRFTISRDNSKNTLYLQMNSLRAEDTAVYYCVSDIAVAGHWYFDLWGRGTLVTVSS
VL: DIQMTQSPSSLSASVGDRVTITCRASQSISTFLNWYQQKPGKAPKLLIYAASRLEGGVPSRFSGSGSGTDFTLTISSLQPEDFATYYCQQANSFPLTFGPGTKVDIK
B22: MAdCAM Antibody Table 2 Clone 55 (antibody, human IgG1, V domains shown)
VH: EVQLLESGGGLVQPGGSLRLSCAASGFTFDDFAMHWVRQAPGKGLEWVSGISGNGDSRYYADSVKGRFTISRDNSKNTLYLQMNSLRAEDTAVYYCARDASYGGNYGMDVWGQGTTVTVSS
VL: B21 VL with R24Q, S28D, S30R, T31N, F32Y, A50K, R53T, G56S

Each binder was assayed against cyno MAdCAM protein (cyno) (assay: Octet).

Row | binding | Binder
1 | binds | B1
2 | binds | B2
3 | binds | B3
4 | binds | B4
5 | binds | B5
6 | binds | B6
7 | binds | B7
8 | binds | B8
9 | binds | B9
10 | binds | B10
11 | binds | B11
12 | binds | B12
13 | binds | B13
14 | binds | B14
15 | binds | B15
16 | binds | B16
17 | binds | B17
18 | binds | B18
19 | binds | B19
20 | binds | B20
21 | binds | B21
22 | binds | B22

Where a chain is given by its changes, count along the chain named. Results are given in words; binding and its absence hold for the method and conditions named. A result given as binding can be weak or reduced; the word gives no strength.
